Structures can show the parent of a compound that is named as a salt. The list shows a part of the results. The calls rarely recur for the same compound in another form.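 Kinases were expressed as nanoluciferase fusions in K562 cells and luminescence was read every 4 h between 2 and 18 h as percent of control, DMSO set to 100% and a positive control to 0%. A time point counts as decreased when the signal drops significantly (2 sigma). The hit call is the authors' own, does not follow from the count of time points alone, and its rule is not shown.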
Tests used:
Assay in all cases: kinase-Nluc reporter destabilization hit call (1 = scored as downregulated) (binary); higher = compound decreases kinase abundance
Settings in all cases: K562; 2-18 h
BRAF_V600E = test system: BRAF_V600E
BTK = BTK (UniProt Q06187)
CAMK2A = CAMK2A (UniProt Q9UQM7)
CAMK2G = CAMK2G (UniProt Q13555)
CDK10 = CDK10 (UniProt Q15131)
CDK2 = CDK2 (UniProt P24941)
CDK3 = CDK3 (UniProt Q00526)
CDK4 = CDK4 (UniProt P11802)
CDK5 = CDK5 (UniProt Q00535)
CDK6 = CDK6 (UniProt Q00534)
CDK7 = CDK7 (UniProt P50613)
CDK9 = CDK9 (UniProt P50750)
CHEK2 = CHEK2 (UniProt O96017)
CSF1R = CSF1R (UniProt P07333)
CSK = CSK (UniProt P41240)
CSNK1A1 = CSNK1A1 (UniProt P48729)
CSNK1D = CSNK1D (UniProt P48730)
DDR1 = DDR1 (UniProt Q08345)
DYRK1B = DYRK1B (UniProt Q9Y463)
DYRK2 = DYRK2 (UniProt Q92630)

Chains of the proteins cited; added tags and fusions are not shown. Lines headed by an entry give the natural chain unless they say otherwise; changes in a name come on top.
UniProt Q06187: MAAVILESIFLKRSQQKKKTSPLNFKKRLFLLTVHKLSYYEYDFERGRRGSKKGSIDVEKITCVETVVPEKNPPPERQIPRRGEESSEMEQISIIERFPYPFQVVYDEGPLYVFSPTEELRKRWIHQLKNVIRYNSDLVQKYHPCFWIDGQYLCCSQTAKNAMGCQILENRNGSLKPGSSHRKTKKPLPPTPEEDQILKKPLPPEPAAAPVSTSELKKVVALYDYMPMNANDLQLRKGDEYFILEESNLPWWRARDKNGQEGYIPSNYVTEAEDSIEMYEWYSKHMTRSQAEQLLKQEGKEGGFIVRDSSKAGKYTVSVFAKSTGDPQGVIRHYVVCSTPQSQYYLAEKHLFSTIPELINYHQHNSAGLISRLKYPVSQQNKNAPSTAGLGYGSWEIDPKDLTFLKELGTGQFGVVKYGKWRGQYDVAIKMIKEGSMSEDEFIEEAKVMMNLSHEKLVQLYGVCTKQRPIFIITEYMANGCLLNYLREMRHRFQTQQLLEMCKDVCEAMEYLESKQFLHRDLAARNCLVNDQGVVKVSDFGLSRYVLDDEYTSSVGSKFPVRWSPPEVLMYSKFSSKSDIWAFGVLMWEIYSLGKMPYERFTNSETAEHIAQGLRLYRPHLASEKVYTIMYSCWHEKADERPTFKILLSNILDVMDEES
UniProt Q9UQM7, whole entry: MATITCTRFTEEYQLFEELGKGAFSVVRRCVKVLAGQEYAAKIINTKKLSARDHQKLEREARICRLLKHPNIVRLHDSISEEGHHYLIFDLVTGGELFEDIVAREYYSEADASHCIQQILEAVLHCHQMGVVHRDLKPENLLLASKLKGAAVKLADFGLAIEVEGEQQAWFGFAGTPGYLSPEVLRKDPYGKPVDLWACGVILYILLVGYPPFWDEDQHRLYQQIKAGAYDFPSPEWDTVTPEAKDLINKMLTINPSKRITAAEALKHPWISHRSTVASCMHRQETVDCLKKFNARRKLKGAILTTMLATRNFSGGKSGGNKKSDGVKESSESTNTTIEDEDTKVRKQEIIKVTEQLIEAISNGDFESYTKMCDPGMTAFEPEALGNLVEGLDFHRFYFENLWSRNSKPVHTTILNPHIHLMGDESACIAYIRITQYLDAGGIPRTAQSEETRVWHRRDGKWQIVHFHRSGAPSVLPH
UniProt Q15131: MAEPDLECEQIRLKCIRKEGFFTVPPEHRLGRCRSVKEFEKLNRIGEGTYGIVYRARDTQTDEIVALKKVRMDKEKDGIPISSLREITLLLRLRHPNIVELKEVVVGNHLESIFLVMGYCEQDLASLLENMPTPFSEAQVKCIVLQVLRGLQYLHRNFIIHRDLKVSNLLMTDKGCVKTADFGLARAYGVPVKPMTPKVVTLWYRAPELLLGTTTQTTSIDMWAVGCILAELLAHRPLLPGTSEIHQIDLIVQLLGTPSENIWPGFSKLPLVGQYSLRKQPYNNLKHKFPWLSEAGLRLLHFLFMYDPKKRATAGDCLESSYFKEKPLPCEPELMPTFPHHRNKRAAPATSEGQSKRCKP
UniProt Q00526: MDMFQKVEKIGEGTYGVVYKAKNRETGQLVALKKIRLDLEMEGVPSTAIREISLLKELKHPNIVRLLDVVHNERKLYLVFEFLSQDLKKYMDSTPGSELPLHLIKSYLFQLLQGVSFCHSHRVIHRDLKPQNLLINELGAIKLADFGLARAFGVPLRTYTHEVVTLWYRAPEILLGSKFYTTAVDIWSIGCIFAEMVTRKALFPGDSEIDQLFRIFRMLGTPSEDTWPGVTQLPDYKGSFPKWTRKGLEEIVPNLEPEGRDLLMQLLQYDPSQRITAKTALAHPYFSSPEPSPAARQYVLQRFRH
UniProt Q00535, whole entry, looked up: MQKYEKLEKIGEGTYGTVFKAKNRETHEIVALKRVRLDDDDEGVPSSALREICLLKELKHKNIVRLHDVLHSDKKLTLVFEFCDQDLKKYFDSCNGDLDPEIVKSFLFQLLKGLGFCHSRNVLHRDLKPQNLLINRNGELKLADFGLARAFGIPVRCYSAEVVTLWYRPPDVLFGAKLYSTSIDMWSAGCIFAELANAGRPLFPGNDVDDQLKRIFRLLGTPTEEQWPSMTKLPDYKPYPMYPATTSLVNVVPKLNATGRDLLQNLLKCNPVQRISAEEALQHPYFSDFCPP
UniProt P50613: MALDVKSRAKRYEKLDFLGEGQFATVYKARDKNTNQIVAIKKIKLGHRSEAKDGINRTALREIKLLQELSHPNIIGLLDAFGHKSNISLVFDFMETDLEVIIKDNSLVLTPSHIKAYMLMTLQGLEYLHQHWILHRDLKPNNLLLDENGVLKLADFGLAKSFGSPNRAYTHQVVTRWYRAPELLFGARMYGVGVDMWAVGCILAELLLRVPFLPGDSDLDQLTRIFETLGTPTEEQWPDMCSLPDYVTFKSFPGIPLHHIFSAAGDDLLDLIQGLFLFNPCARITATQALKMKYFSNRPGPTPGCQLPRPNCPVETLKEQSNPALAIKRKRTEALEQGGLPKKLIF
UniProt P50750, whole entry: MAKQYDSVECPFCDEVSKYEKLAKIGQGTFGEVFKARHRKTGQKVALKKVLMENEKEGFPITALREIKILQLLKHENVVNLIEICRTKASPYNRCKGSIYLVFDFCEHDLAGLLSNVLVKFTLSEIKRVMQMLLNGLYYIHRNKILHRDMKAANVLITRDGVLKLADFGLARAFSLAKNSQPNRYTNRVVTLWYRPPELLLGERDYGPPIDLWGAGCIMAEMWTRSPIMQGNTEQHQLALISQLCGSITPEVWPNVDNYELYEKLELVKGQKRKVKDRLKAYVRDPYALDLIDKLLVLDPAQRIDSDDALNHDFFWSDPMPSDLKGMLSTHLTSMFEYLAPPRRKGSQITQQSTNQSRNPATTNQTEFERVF
UniProt P07333, whole entry: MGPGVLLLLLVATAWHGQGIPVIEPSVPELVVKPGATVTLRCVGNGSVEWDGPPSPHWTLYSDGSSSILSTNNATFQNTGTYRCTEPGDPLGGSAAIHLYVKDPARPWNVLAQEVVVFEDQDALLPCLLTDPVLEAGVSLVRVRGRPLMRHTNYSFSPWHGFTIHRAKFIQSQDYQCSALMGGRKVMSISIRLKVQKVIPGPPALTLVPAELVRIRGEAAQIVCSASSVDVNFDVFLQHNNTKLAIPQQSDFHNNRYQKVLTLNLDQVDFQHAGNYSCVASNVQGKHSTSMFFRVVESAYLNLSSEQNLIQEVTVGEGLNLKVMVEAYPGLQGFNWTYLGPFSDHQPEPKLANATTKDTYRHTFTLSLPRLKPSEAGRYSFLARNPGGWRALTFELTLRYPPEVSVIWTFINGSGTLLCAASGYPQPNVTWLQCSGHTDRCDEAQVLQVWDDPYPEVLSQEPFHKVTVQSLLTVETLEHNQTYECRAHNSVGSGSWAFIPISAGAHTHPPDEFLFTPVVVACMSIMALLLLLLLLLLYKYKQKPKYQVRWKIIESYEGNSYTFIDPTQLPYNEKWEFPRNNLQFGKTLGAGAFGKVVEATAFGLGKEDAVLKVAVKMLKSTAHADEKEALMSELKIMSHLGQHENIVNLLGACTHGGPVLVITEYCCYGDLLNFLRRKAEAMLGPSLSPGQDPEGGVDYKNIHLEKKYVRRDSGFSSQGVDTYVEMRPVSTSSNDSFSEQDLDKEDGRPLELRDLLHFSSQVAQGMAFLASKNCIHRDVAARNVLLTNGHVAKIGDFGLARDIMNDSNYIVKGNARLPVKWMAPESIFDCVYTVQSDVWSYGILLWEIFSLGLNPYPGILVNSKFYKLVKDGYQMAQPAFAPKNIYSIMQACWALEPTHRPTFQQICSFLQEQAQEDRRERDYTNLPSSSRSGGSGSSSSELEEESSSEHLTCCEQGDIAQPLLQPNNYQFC
UniProt P41240: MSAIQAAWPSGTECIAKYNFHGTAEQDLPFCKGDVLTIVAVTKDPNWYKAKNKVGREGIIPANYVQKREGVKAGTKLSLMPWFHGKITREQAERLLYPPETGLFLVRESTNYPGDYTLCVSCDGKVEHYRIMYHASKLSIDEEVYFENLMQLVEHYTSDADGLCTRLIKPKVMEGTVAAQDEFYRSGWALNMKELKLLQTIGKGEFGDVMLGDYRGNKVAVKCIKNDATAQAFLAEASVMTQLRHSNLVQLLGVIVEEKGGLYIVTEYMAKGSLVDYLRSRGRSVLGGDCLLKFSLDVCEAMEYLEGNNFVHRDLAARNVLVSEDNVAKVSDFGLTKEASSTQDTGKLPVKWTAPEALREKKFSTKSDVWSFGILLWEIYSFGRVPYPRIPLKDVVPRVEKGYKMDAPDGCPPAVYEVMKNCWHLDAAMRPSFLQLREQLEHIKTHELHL
UniProt P48729: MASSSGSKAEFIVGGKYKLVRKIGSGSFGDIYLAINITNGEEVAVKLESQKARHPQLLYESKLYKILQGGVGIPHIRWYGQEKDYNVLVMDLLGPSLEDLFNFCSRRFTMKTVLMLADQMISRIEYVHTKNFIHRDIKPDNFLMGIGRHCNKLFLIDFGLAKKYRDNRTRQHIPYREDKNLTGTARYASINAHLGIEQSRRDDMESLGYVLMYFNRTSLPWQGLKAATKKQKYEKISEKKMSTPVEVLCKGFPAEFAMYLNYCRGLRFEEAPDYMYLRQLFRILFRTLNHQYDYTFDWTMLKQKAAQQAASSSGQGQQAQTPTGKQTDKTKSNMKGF
UniProt P48730: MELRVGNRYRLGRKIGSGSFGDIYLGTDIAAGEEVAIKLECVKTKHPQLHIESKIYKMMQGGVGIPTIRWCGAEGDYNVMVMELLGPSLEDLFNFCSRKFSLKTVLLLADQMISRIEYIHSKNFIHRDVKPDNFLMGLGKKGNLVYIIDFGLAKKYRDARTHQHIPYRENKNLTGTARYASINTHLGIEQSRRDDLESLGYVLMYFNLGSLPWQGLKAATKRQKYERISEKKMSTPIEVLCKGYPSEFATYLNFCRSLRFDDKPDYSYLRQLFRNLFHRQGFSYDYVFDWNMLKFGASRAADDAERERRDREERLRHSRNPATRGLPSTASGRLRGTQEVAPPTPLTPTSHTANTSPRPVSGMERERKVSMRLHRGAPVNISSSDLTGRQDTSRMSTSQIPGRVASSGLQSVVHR
UniProt Q08345: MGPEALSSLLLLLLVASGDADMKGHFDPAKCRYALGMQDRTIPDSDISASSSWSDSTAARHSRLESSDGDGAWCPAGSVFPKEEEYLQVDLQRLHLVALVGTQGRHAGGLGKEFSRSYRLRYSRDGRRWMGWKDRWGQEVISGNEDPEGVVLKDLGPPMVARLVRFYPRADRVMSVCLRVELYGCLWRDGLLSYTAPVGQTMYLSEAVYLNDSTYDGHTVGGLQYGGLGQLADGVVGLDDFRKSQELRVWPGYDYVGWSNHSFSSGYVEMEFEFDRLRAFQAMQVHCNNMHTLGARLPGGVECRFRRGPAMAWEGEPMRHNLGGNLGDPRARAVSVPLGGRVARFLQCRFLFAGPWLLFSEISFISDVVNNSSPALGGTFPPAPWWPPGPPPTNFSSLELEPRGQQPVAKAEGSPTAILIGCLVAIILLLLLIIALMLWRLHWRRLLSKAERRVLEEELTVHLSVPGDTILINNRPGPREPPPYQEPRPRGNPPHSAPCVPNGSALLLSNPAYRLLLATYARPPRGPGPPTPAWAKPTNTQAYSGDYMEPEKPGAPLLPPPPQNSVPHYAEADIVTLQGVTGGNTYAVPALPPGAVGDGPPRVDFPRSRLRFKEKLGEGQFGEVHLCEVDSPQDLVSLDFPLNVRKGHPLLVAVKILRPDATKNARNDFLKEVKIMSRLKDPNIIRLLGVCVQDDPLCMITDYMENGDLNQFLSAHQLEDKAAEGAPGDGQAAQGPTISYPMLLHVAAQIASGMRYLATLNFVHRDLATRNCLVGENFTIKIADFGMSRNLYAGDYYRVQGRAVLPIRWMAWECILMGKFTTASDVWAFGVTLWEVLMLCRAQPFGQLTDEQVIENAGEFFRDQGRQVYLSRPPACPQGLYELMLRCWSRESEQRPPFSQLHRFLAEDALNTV
UniProt Q9Y463, whole entry, looked up: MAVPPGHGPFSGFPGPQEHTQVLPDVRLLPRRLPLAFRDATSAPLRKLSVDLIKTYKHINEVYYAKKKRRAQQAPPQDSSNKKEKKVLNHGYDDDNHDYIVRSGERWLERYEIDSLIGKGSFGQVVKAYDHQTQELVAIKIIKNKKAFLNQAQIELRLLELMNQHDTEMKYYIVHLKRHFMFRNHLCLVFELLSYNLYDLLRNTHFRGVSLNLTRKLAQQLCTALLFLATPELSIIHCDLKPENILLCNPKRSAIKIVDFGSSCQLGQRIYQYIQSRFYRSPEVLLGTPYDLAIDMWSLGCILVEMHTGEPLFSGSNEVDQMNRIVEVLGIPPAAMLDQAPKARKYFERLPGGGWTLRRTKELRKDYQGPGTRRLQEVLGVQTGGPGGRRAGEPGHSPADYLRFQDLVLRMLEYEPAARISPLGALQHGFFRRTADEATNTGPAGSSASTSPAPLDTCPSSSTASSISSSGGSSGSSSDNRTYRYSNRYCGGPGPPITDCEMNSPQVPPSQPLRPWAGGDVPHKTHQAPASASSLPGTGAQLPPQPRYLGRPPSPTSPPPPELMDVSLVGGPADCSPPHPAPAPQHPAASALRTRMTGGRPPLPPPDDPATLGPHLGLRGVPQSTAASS

Measured: kinase-Nluc reporter destabilization hit call

O=c1[nH]c(C2CCCN2)nc2c1oc1ccc(Cl)cc12 (stereo not given) [XL413 (hydrochloride)] (10 µM)
inactive: BRAF_V600E 0 | BTK 0 | CAMK2A 0 | CAMK2G 0 | CDK10 = 0 | CDK2 = 0 | CDK3 = 0 | CDK4 = 0 | CDK5 = 0 | CDK6 = 0 | CDK7 = 0 | CDK9 = 0 | CHEK2 = 0 | CSF1R 0 | CSK 0 | CSNK1A1 = 0 | CSNK1D 0 | DDR1 = 0 | DYRK1B 0 | DYRK2 = 0

O=C1NC(=Nc2c(Cl)cccc2Cl)S/C1=C\c1ccc2nccnc2c1 (2.5 µM)
inactive: BRAF_V600E 0 | BTK 0 | CAMK2A 0 | CAMK2G 0 | CDK10 = 0 | CDK2 = 0 | CDK3 = 0 | CDK4 = 0 | CDK5 = 0 | CDK6 = 0 | CDK7 = 0 | CDK9 = 0 | CHEK2 = 0 | CSF1R 0 | CSK 0 | CSNK1A1 = 0 | CSNK1D 0 | DDR1 = 0 | DYRK1B 0 | DYRK2 = 0

CC(C)CCNC(=O)c1ccc2c(c1)nc(Nc1n[nH]c3ccc(-c4ccccc4OC(F)(F)F)cc13)n2C1CCC(O)CC1 (stereo not drawn) [IRAK inhibitor 4 (trans)] (10 µM)
inactive: BRAF_V600E 0 | BTK 0 | CAMK2A 0 | CAMK2G 0 | CDK10 = 0 | CDK2 = 0 | CDK3 = 0 | CDK4 = 0 | CDK5 = 0 | CDK6 = 0 | CDK7 = 0 | CDK9 = 0 | CHEK2 = 0 | CSF1R 0 | CSK 0 | CSNK1A1 = 0 | CSNK1D 0 | DDR1 = 0 | DYRK1B 0 | DYRK2 = 0

COc1ccccc1C(=O)/C=C/c1ccccc1C(=O)O (10 µM)
inactive: BRAF_V600E 0 | BTK 0 | CAMK2A 0 | CAMK2G 0 | CDK10 = 0 | CDK2 = 0 | CDK3 = 0 | CDK4 = 0 | CDK5 = 0 | CDK6 = 0 | CDK7 = 0 | CDK9 = 0 | CHEK2 = 0 | CSF1R 0 | CSK 0 | CSNK1A1 = 0 | CSNK1D 0 | DDR1 = 0 | DYRK1B 0 | DYRK2 = 0

O=C(O)c1cc(N(Cc2ccccc2O)Cc2ccccc2O)ccc1O [Lavendustin B] (10 µM)
inactive: BRAF_V600E 0 | BTK 0 | CAMK2A 0 | CAMK2G 0 | CDK10 = 0 | CDK2 = 0 | CDK3 = 0 | CDK4 = 0 | CDK5 = 0 | CDK6 = 0 | CDK7 = 0 | CDK9 = 0 | CHEK2 = 0 | CSF1R 0 | CSK 0 | CSNK1A1 = 0 | CSNK1D 0 | DDR1 = 0 | DYRK1B 0 | DYRK2 = 0

C[C@H](NC(=O)[C@H]1NCC[C@@H]1O)c1ccc(-c2noc(CCC3CCCC3)n2)cc1 (10 µM)
inactive: BRAF_V600E 0 | BTK 0 | CAMK2A 0 | CAMK2G 0 | CDK10 = 0 | CDK2 = 0 | CDK3 = 0 | CDK4 = 0 | CDK5 = 0 | CDK6 = 0 | CDK7 = 0 | CDK9 = 0 | CHEK2 = 0 | CSF1R 0 | CSK 0 | CSNK1A1 = 0 | CSNK1D 0 | DDR1 = 0 | DYRK1B 0 | DYRK2 = 0

CCCCCCCCCCCCCCCCOP(=O)([O-])OCC[N+](C)(C)C [Miltefosine] (10 µM)
inactive: BRAF_V600E 0 | BTK 0 | CAMK2A 0 | CAMK2G 0 | CDK10 = 0 | CDK2 = 0 | CDK3 = 0 | CDK4 = 0 | CDK5 = 0 | CDK6 = 0 | CDK7 = 0 | CDK9 = 0 | CHEK2 = 0 | CSF1R 0 | CSK 0 | CSNK1A1 = 0 | CSNK1D 0 | DDR1 = 0 | DYRK1B 0 | DYRK2 = 0

C=CC(=O)N1CCC[C@H](n2c(=O)n(-c3ccc(Oc4ccccc4)cc3)c3c(N)ncnc32)C1 [ONO-4059 (analog)] (10 µM)
inactive: BRAF_V600E 0 | BTK 0 | CAMK2A 0 | CAMK2G 0 | CDK10 = 0 | CDK2 = 0 | CDK3 = 0 | CDK4 = 0 | CDK5 = 0 | CDK6 = 0 | CDK7 = 0 | CDK9 = 0 | CHEK2 = 0 | CSF1R 0 | CSK 0 | CSNK1A1 = 0 | CSNK1D 0 | DDR1 = 0 | DYRK1B 0 | DYRK2 = 0

O=C(Nc1nc(=O)n(Cc2ccc(Cl)cc2)s1)c1ccc(Cl)cc1 (10 µM)
inactive: BRAF_V600E 0 | BTK 0 | CAMK2A 0 | CAMK2G 0 | CDK10 = 0 | CDK2 = 0 | CDK3 = 0 | CDK4 = 0 | CDK5 = 0 | CDK6 = 0 | CDK7 = 0 | CDK9 = 0 | CHEK2 = 0 | CSF1R 0 | CSK 0 | CSNK1A1 = 0 | CSNK1D 0 | DDR1 = 0 | DYRK1B 0 | DYRK2 = 0

CCN(CC)c1ccc2cc(-c3nc4cc(C)ccc4o3)c(=O)oc2c1 (10 µM)
inactive: BRAF_V600E 0 | BTK 0 | CAMK2A 0 | CAMK2G 0 | CDK10 = 0 | CDK2 = 0 | CDK3 = 0 | CDK4 = 0 | CDK5 = 0 | CDK6 = 0 | CDK7 = 0 | CDK9 = 0 | CHEK2 = 0 | CSF1R 0 | CSK 0 | CSNK1A1 = 0 | CSNK1D 0 | DDR1 = 0 | DYRK1B 0 | DYRK2 = 0

Cc1ccc(-c2csc3ncnc(SCCC(=O)O)c23)cc1 (10 µM)
inactive: BRAF_V600E 0 | BTK 0 | CAMK2A 0 | CAMK2G 0 | CDK10 = 0 | CDK2 = 0 | CDK3 = 0 | CDK4 = 0 | CDK5 = 0 | CDK6 = 0 | CDK7 = 0 | CDK9 = 0 | CHEK2 = 0 | CSF1R 0 | CSK 0 | CSNK1A1 = 0 | CSNK1D 0 | DDR1 = 0 | DYRK1B 0 | DYRK2 = 0

COc1cc(-c2cn[nH]c2)ccc1C(=O)Nc1ccc2c(c1)CCNCC2 (10 µM)
inactive: BRAF_V600E 0 | BTK 0 | CAMK2A 0 | CAMK2G 0 | CDK10 = 0 | CDK2 = 0 | CDK3 = 0 | CDK4 = 0 | CDK5 = 0 | CDK6 = 0 | CDK7 = 0 | CDK9 = 0 | CHEK2 = 0 | CSF1R 0 | CSK 0 | CSNK1A1 = 0 | CSNK1D 0 | DDR1 = 0 | DYRK1B 0 | DYRK2 = 0

Cc1nc(-c2cnn(C)c2)nc2c1[nH]c1ncc(-c3ccc(N4CCN(C)CC4)cc3)cc12 [GNE 220 (hydrochloride)] (10 µM)
inactive: BRAF_V600E 0 | BTK 0 | CAMK2A 0 | CAMK2G 0 | CDK10 = 0 | CDK2 = 0 | CDK3 = 0 | CDK4 = 0 | CDK5 = 0 | CDK6 = 0 | CDK7 = 0 | CDK9 = 0 | CHEK2 = 0 | CSF1R 0 | CSK 0 | CSNK1A1 = 0 | CSNK1D 0 | DDR1 = 0 | DYRK1B 0 | DYRK2 = 0

Ordered by formula weight (rising): some entries from above.
O=C(Nc1nc(=O)n(Cc2ccc(Cl)cc2)s1)c1ccc(Cl)cc1 (10 µM)
inactive: BRAF_V600E 0 | BTK 0 | CAMK2A 0 | CAMK2G 0 | CDK10 = 0 | CDK2 = 0 | CDK3 = 0 | CDK4 = 0 | CDK5 = 0 | CDK6 = 0 | CDK7 = 0 | CDK9 = 0 | CHEK2 = 0 | CSF1R 0 | CSK 0 | CSNK1A1 = 0 | CSNK1D 0 | DDR1 = 0 | DYRK1B 0 | DYRK2 = 0

O=C1NC(=Nc2c(Cl)cccc2Cl)S/C1=C\c1ccc2nccnc2c1 (2.5 µM)
inactive: BRAF_V600E 0 | BTK 0 | CAMK2A 0 | CAMK2G 0 | CDK10 = 0 | CDK2 = 0 | CDK3 = 0 | CDK4 = 0 | CDK5 = 0 | CDK6 = 0 | CDK7 = 0 | CDK9 = 0 | CHEK2 = 0 | CSF1R 0 | CSK 0 | CSNK1A1 = 0 | CSNK1D 0 | DDR1 = 0 | DYRK1B 0 | DYRK2 = 0

CC(C)CCNC(=O)c1ccc2c(c1)nc(Nc1n[nH]c3ccc(-c4ccccc4OC(F)(F)F)cc13)n2C1CCC(O)CC1 (stereo not drawn) [IRAK inhibitor 4 (trans)] (10 µM)
inactive: BRAF_V600E 0 | BTK 0 | CAMK2A 0 | CAMK2G 0 | CDK10 = 0 | CDK2 = 0 | CDK3 = 0 | CDK4 = 0 | CDK5 = 0 | CDK6 = 0 | CDK7 = 0 | CDK9 = 0 | CHEK2 = 0 | CSF1R 0 | CSK 0 | CSNK1A1 = 0 | CSNK1D 0 | DDR1 = 0 | DYRK1B 0 | DYRK2 = 0

(further entries)

NC1=NCCN1CC(=O)O [Cyclocreatine] (10 µM)
inactive: BRAF_V600E 0 | BTK 0 | CAMK2A 0 | CAMK2G 0 | CDK10 = 0 | CDK2 = 0 | CDK3 = 0 | CDK4 = 0 | CDK5 = 0 | CDK6 = 0 | CDK7 = 0 | CDK9 = 0 | CHEK2 = 0 | CSF1R 0 | CSK 0 | CSNK1A1 = 0 | CSNK1D 0 | DDR1 = 0 | DYRK1B 0 | DYRK2 = 0

CC[C@@](C)(Nc1ccnc(-c2c[nH]c3ncccc23)n1)C(=O)NCC(F)(F)F [Decernotinib] (10 µM)
inactive: BRAF_V600E 0 | BTK 0 | CAMK2A 0 | CAMK2G 0 | CDK10 = 0 | CDK2 = 0 | CDK3 = 0 | CDK4 = 0 | CDK5 = 0 | CDK6 = 0 | CDK7 = 0 | CDK9 = 0 | CHEK2 = 0 | CSF1R 0 | CSK 0 | CSNK1A1 = 0 | CSNK1D 0 | DDR1 = 0 | DYRK1B 0 | DYRK2 = 0

Nc1ncnc2c1c(-c1ccc(Oc3ccccc3)cc1)nn2C1CCN(CCOCCOCCOc2ccc3c(c2)CN(C2CCC(=O)NC2=O)C3=O)CC1 (stereo not given) (2.5 µM)
inactive: BRAF_V600E 0 | BTK 0 | CAMK2A 0 | CAMK2G 0 | CDK10 = 0 | CDK2 = 0 | CDK3 = 0 | CDK4 = 0 | CDK5 = 0 | CDK6 = 0 | CDK7 = 0 | CDK9 = 0 | CHEK2 = 0 | CSF1R 0 | CSK 0 | CSNK1A1 = 0 | CSNK1D 0 | DDR1 = 0 | DYRK1B 0 | DYRK2 = 0

Source: the supplement of paper PMC12823440, “Inhibitors supercharge kinase turnover through native proteolytic circuits” (Nature, 2025)
